PubChem BioAssay AID1259326, Drosophila RNAi Screening Center | 2017
This is an unselected part of 573 reagents. Of all reagents, 39 (6.8%) got an active call. 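All actives have raised ATP, meaning more surviving cells; in these data active calls sit at averaged z-scores near 1.5 or above.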 The raw values are shown without normalisation. Unmarked entries are inactive. Reagents against one gene are numbered here. Not given: the amount of reagent.

Purpose: 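RNAi screen for genes modifying zinc chloride toxicity in fly cells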
System: Drosophila S2R+ cells
Reagent: long dsRNA against Drosophila genes
Time to read-out: about 5 days (4 days of RNAi, then 1 day of zinc)
Treatment: zinc chloride added to 15 mM final for one day
Read-out: 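Luminescent ATP signal marks surviving cells, read after RNAi for 4 days then 15 mM zinc chloride for 1 day; z-scores are replicate means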
Reading the numbers: averaged z-score: higher = more ATP than other wells, i.e. more surviving cells, after zinc; ATP luminescence: higher = more ATP, i.e. more surviving cells
Call rule: 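Active if the averaged z-score exceeds 1.5 or falls under -1.5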

| gene | reagent no. | averaged z-score | ATP luminescence, replicate 1 | ATP luminescence, replicate 2 |
| --- | --- | --- | --- | --- |
| CG8036 | 1 | -0.289 | 73803 | 1.01e5 |
| CG8036 | 2 | -0.347 | 61815 | 74163 |
| ThrRS | 1 | 0.342 | 91165 | 1.05e5 |
| ThrRS | 2 | 0.0397 | 72020 | 78177 |
| Cul2 | 1 | 0.349 | 1.03e5 | 82623 |
| Cul2 | 2 | 0.228 | 88795 | 71162 |
| Cul2 | 3 | 0.0505 | 68709 | 75277 |
| Eip74EF | 1 | -0.21 | 1.00e5 | 72294 |
| Eip74EF | 2 | -0.342 | 79892 | 61026 |
| Nup154 | 1 | 1.3 | 87200 | 1.17e5 |
| Nup154 | 2 | 2.35 (active) | 1.12e5 | 1.26e5 |
| Nup154 | 3 | -0.0479 | 81933 | 71213 |
| gish | 1 | 0.14 | 92878 | 82757 |
| gish | 2 | 0.302 | 78760 | 92706 |
| gish | 3 | -0.858 | 54442 | 64336 |
| emb | 1 | -0.208 | 92723 | 72002 |
| emb | 2 | -0.0533 | 81687 | 55745 |
| emb | 3 | -0.0468 | 72141 | 83108 |
| Uvrag | 1 | -0.179 | 87925 | 74266 |
| Uvrag | 2 | -0.285 | 81179 | 59552 |
| Uvrag | 3 | -0.337 | 65622 | 71968 |
| Atg6 | 1 | -0.565 | 78640 | 58508 |
| Atg6 | 2 | -0.11 | 77971 | 69292 |
| Atg6 | 3 | -0.503 | 58681 | 75175 |
| esn | 1 | 0.327 | 96498 | 87474 |
| esn | 2 | -0.246 | 76004 | 64919 |
| esn | 3 | -0.417 | 64868 | 67577 |
| eIF3a | 1 | 2.02 (active) | 1.30e5 | 1.30e5 |
| eIF3a | 2 | 2.51 (active) | 1.32e5 | 1.15e5 |
| eIF3a | 3 | 2.14 (active) | 1.05e5 | 1.23e5 |
| GCS2alpha | 1 | -0.431 | 90545 | 66754 |
| GCS2alpha | 2 | -0.404 | 71265 | 75141 |
| GCS2alpha | 3 | -0.14 | 63479 | 71848 |
| Ask1 | 1 | -0.216 | 93290 | 80424 |
| Ask1 | 2 | -0.311 | 68728 | 68139 |
| Ask1 | 3 | -0.31 | 54030 | 73649 |
| Atg9 | 1 | 0.188 | 1.02e5 | 76496 |
| Atg9 | 2 | 0.22 | 76565 | 80925 |
| Atg9 | 3 | 0.237 | 80887 | 89069 |
| Pfk | 1 | -0.622 | 83580 | 68641 |
| Pfk | 2 | -0.393 | 82688 | 67256 |
| Pfk | 3 | -0.452 | 63359 | 70339 |
| CG18324 | 1 | -0.439 | 80167 | 63684 |
| CG18324 | 2 | 0.00759 | 80218 | 75827 |
| CG18324 | 3 | -0.103 | 69327 | 78143 |
| car | 1 | 0.0556 | 96206 | 80698 |
| car | 2 | -0.504 | 70824 | 67852 |
| CG41099 | 1 | -0.044 | 95160 | 71639 |
| CG41099 | 2 | -0.00381 | 78194 | 71248 |
| CG41099 | 3 | -0.208 | 67252 | 73117 |
| Atg4a | 1 | -0.184 | 80630 | 62758 |
| Atg4a | 2 | -0.328 | 71722 | 64405 |
| Atg4a | 3 | -0.128 | 66857 | 75724 |
| Eip93F | 1 | -0.371 | 79498 | 65897 |
| Eip93F | 2 | -0.439 | 90459 | 55009 |
| Sec61alpha | 1 | 0.713 | 86702 | 98998 |
| Sec61alpha | 2 | 1.2 | 86359 | 99586 |
| Sec61alpha | 3 | 1.55 (active) | 1.05e5 | 1.08e5 |
| sff | 1 | -0.0965 | 84609 | 76204 |
| sff | 2 | -0.0482 | 66531 | 75913 |
| sff | 3 | 0.147 | 90287 | 70767 |
| Atg13 | 1 | -0.109 | 83117 | 93227 |
| Atg18a | 1 | 0.522 | 1.10e5 | 72483 |
| Atg18a | 2 | -0.146 | 98305 | 70870 |
| Atg18a | 3 | 0.523 | 91025 | 92690 |
| Slh | 1 | 0.117 | 1.15e5 | 62433 |
| Slh | 2 | 1.64 (active) | 1.25e5 | 86729 |
| Slh | 3 | 1.53 (active) | 92981 | 1.14e5 |

Part of the list above, reformatted:
{"gene":"Pfk","reagent no.":2,"averaged z-score":-0.393,"ATP luminescence, replicate 1":82688,"ATP luminescence, replicate 2":67256}
{"gene":"Pfk","reagent no.":3,"averaged z-score":-0.452,"ATP luminescence, replicate 1":63359,"ATP luminescence, replicate 2":70339}
{"gene":"CG18324","reagent no.":1,"averaged z-score":-0.439,"ATP luminescence, replicate 1":80167,"ATP luminescence, replicate 2":63684}
{"gene":"CG18324","reagent no.":2,"averaged z-score":0.00759,"ATP luminescence, replicate 1":80218,"ATP luminescence, replicate 2":75827}
{"gene":"CG18324","reagent no.":3,"averaged z-score":-0.103,"ATP luminescence, replicate 1":69327,"ATP luminescence, replicate 2":78143}
{"gene":"car","reagent no.":1,"averaged z-score":0.0556,"ATP luminescence, replicate 1":96206,"ATP luminescence, replicate 2":80698}
{"gene":"car","reagent no.":2,"averaged z-score":-0.504,"ATP luminescence, replicate 1":70824,"ATP luminescence, replicate 2":67852}
